# Article PMC10163288
# Some of the results follow.
# B1: il2ra_site1_2b5i_sap_19_mot_HHH_b2_06557_000000199_0001_42_56_H_._HHH_b1_01408_af2_0001_0000200019_0000001_0_0001_af2pred_dldesign_0_af2pred (protein)
# chain: SSSSSSLKKEALRLFEEANAAFQAGDEARARALLEELLEVATKAKCPTLLRIAQSALDEESSSSS
# B2: il2ra_site1_2b5i_normal_mot_HHH_b1_01240_af2_000000288_0001_42_55_H_._HHH_b1_00339_0001_0000400024_0000001_0_af2pred_dldesign_0_af2pred (protein)
# chain: SSSSDAAEAFADDAFRRALELHRQGRREEARRLLEEARAALEAQGKTDIVAQLDRLLARLSSSSS
# B3: il2ra_site1_1z92_normal_mot_c9a8daa1dfea21d1414aecde54be4f54_0001_1_af2_000000024_0001_32_46_H_._84744eca03b61d784461fbba3329deeb_0001_af2_0001_0000300026_00000 … (protein)
# chain: SLEEELERRLEELGVPPELIRAAKKDVEQALKLGIPPEDVLKAIARIAEDNGDPELKEAAELLLK
# B4: il2ra_site2_2erj_normal_mot_HHH_b1_02968_000000142_0001_22_39_H_._HHH_b2_01127_af2_0001_0000400024_0000001_0 (protein)
# chain: SSSSSDTEEEVREILEEAEEAYEKGDLERVYELAVEALHRASENRDEEAQRLVEEVVEKLSSSSS
# B5: il2ra_site1_2b5i_normal_mot_HHH_b1_08504_af2_000000158_0001_42_54_H_._HHH_b2_03108_af2_0001_0000100009_0000001_0_af2pred_0001_af2pred_1 (protein)
# chain: SSSSSEEWEEVEELYIEASRLFSNGNPEEAEKLLERALKIAEELGDELAVKQIEHMLKNVSSSSS
# B6: il2ra_site1_3nfp_sap_22_mot_cc4219192d8ccd35c40e7b68f9a57604_0001_af2_000000124_0001_16_32_H_._HHH_b1_05637_0001_0000200014_0000001_0_0001_af2pred_0001_af2pred_ … (protein)
# chain: SSSSSDLEEEVEELLEEAKKVEDPREAQEIFEEAKRLAEEANDPELRELIEEVLKRIAQSSSSSS
# B7: il2ra_site2_3nfp_sap_15_mot_HHH_b2_05037_000000121_0001_41_55_H_._5124ce81285e2c7c1af0e00702a809c6_0001_af2_0001_0000100001_0000001_0_0001_af2pred_0001_af2pred (protein)
# chain: SSSSSDIEERVEELLEEAKHIEDPFERFAVLADAAELAVRNGDEELEREVLEVALELRDKSSSSS
# B8: il2ra_site1_2b5i_sap_13_mot_add8a691351788dd45ba4deda1838316_0001_1_af2_000000055_0001_17_32_H_._HEEHE_1324_af2_0001_0000600016_0000001_0_0001_af2pred_0001_af2p … (protein)
# chain: SSSSDEDERVAELFREASELFRRGNPEEARKVLEEARELAEEAGDPVLLRDVEFMLEWLESSSSS
# B9: il2ra_site2_2erj_normal_mot_HHH_b1_00216_000000142_0001_43_57_H_._HHH_b1_07996_0001_0000300009_0000001_0_af2pred_0001_af2pred (protein)
# chain: SSSSTREEEEARLALLKVRLAIEEGNPERARRSIELAEKRVEELGDEEVLEQLERLLRELSSSSS
# B10: il2ra_site2_2erj_normal_mot_HHH_b2_02252_af2_000000112_0001_23_39_H_._HHH_b2_01517_af2_0001_0000700005_0000001_0 (protein)
# chain: SSSSSDELEELLQEAKELLEEGNPEEALEAARRAFELAFKLGDHEAAAEIIELAHQIVRHSSSSS
# B11: il2ra_site2_2erj_normal_mot_HHH_b2_07139_000000086_0001_40_57_H_._HHH_b1_00399_0001_0000100003_0000001_0 (protein)
# chain: SSSSDVEERVRELLEEAEERFKEGDLERVFELLSRALHEASEANNDELQQAIEEFFEELASSSSS
# B12: il2ra_site1_2b5i_sap_17_mot_3c291a2f2994a8e029b17f9ec7f22732_0001_000000088_0001_17_31_H_._HHH_b1_06138_0001_0000500021_0000001_0_0001_af2pred_dldesign_0_af2pre … (protein)
# chain: SSSSSDPRAEVERLIEEARRLYEAGKRREALEALEKAYKLASAANDEALQDEIEALAKEISSSSS
# B13: il2ra_site2_3nfp_sap_20_mot_HHH_b1_05785_af2_000000002_0001_41_57_H_._HHH_b1_00695_af2_0001_0000100002_0000001_0_0001_af2pred_0001_af2pred (protein)
# chain: SSSSSDEERLEELQRELRELLEEGDEEEAERVAQELATLALELGDHEAFAEALSVLKELESSSSS
# B14: il2ra_site2_3nfp_normal_mot_HHH_b2_07083_af2_000000083_0001_42_56_H_._HHH_b1_04834_0001_0000600037_0000001_0_af2pred_0001_af2pred_1 (protein)
# chain: SSSSDIEERVRELLEELEEALREGDEELFRELLKEVSELAAEANDPELLHEVAELFLKFGSSSSS
# B15: il2ra_site1_3nfp_sap_10_mot_d8099cd8ef6a59b9c03de2010570d688_0001_af2_000000184_0001_37_51_H_._ems_3hC_894_0002_af2_0001_0000100001_0000001_0_0001 (protein)
# chain: SSSSNEVRREIQELLKEAMELTANGNPEEARKLLEEALELAEEAGDEAILRFIKEMLERIKSSSS
# B16: il2ra_site2_2erj_normal_mot_HHH_b2_05804_000000098_0001_44_58_H_._HHH_b2_01664_0001_0000600009_0000001_0 (protein)
# chain: SSSSSSWKEVWERVAELLAEAQKIKDPEELRRLLEEAQELAEEANSEFLERYIEFARRDLSSSSS
# B17: il2ra_site2_2erj_normal_mot_HHH_b1_03990_af2_000000075_0001_19_35_H_._HHH_b2_03245_af2_0001_0000300008_0000001_0 (protein)
# chain: SSSSSEEVFEAWALAAEAFHKLAREGDDELFERLQELSARLAREGDPEVAEELLRLAEEVLSSSS
# B18: il2ra_site1_1z92_normal_mot_HHH_b2_01902_af2_000000252_0001_25_40_H_._HHH_b1_06549_af2_0001_0000100014_0000001_0_af2pred_dldesign_0_af2pred (protein)
# chain: SSSSSPLERAARQYVDAIKEIAGLSDEQYAELLAEAERLAAAGVPVRDIAKALDKRAAELLSSSS
# B19: il2ra_site2_3nfp_normal_mot_HHH_b1_04761_000000247_0001_39_52_H_._HHH_b2_05186_0001_0000100007_0000001_1 (protein)
# chain: SSSSDHEEAVEAALQLAEALRERVSEEDQEELERLYRELREEGDPELAIELFKLILELYDSSSSS
# B20: il2ra_site2_3nfp_normal_mot_HHH_b1_00660_af2_000000090_0001_40_57_H_._HHH_b1_07965_0001_0000200016_0000001_0_af2pred_0001_1_af2pred_swapped (protein)
# chain: SSSSSSREEVEELLKEAQELLERGNPEEAERVVREAATVAVELNDHELFAAVSRLLERILSSSSS
# B21: il2ra_site2_2erj_sap_25_mot_HHH_b2_03871_000000240_0001_40_57_H_._ems_p1-15H-GBL-16H-GABBL-16H_0175_0001_0001_0002_0001_0000900032_0000001_0_0001 (protein)
# chain: SSSSSEAEEAFRKAEELVEEGNYEEAAAIAASAMHLALEEGDEELERRIRELYAELAEELVSSSS
# B22: il2ra_site1_3nfp_sap_18_mot_HHH_b1_00258_000000025_0001_42_56_H_._HHH_b1_07363_0002_0000300028_0000001_0_0001_af2pred_0001_af2pred_swapped (protein)
# chain: SSSSTDEVLELLRILLELAKEGDEEKFEEVLEELEELAEKHNDKLAERLVKQARRFEKLHSSSSS
# B23: il2ra_site1_2b5i_normal_mot_HHH_b2_04910_000000118_0001_1_19_H_._HHH_b2_02106_af2_0001_0000300030_0000001_0_af2pred_dldesign_0_af2pred (protein)
# chain: SSSSSAETKEARRLFLEANELKQAGKYEEALEKLKKAKELAEKGGANLLAKMIELAIENLESSSS
# B24: il2ra_site1_3nfp_normal_mot_HHH_b1_04049_af2_000000244_0001_42_55_H_._d1fb33ed66649044859e967e86ea168f_0001_af2_0001_0000200005_0000001_0 (protein)
# chain: TKEKAIEDIIRALKQLPDPEVRELAEEAEELLENGDPEEALKVLKEAAKLLGDPVLEKLIEQYLT
# Molecular target: il2ra, P01589
# Assay: yeast display titration
row,Binder,apparent Kd
1,B1,inactive: no binding seen
2,B2,inactive: no binding seen
3,B3,inactive: no binding seen
4,B4,inactive: no binding seen
5,B5,inactive: no binding seen
6,B6,inactive: no binding seen
7,B7,inactive: no binding seen
8,B8,inactive: no binding seen
9,B9,inactive: no binding seen
10,B10,inactive: no binding seen
11,B11,inactive: no binding seen
12,B12,inactive: no binding seen
13,B13,inactive: no binding seen
14,B14,inactive: no binding seen
15,B15,inactive: no binding seen
16,B16,inactive: no binding seen
17,B17,inactive: no binding seen
18,B18,inactive: no binding seen
19,B19,inactive: no binding seen
20,B20,inactive: no binding seen
21,B21,inactive: no binding seen
22,B22,inactive: no binding seen
23,B23,inactive: no binding seen
24,B24,inactive: no binding seen

# Another view of part of the listing above:
row | Binder | apparent Kd
23 | B23 | inactive: no binding seen
24 | B24 | inactive: no binding seen
